{
  "source": "patent US8765774B2",
  "about": "“3-arylquinazolin-4-one compounds for combating invertebrate pests” (BASF SE, priority 2009, dated 2014)",
  "assay_type_in_all_cases": "in vivo",
  "key": {"[1]": {"tested_on": "Kanzawa Spider Mite (Tetranychus kanzawai)", "test": "Kanzawa spider mite, sprayed potted cotton plants, 72 hours (II.7.b)", "conditions": "300 ppm test solution; after 72 hours; in comparison with untreated controls"}, "[2]": {"tested_on": "2-Spotted Spider Mite (Tetranychus urticae)", "test": "2-spotted spider mite, dipped Sieva lima bean plants (II.6)", "conditions": "300 ppm test solution, after 5 days, in comparison with untreated controls"}, "[3]": {"tested_on": "Diamond Back Moth (Plutella xylostella)", "test": "Diamond back moth, cabbage leaf disk dip (II.1.b)", "conditions": "300 ppm, after 72 h, in comparison with untreated controls"}},
  "note": "Some entries share one result that the patent states for a list of compounds. At least one structure is not confirmed: it was looked up by name or label, or the drawing left a doubt.",
  "data": [
    {"smiles": "Cc1cc(F)c(-n2cnc3ccccc3c2=O)cc1[S+]([O-])CC(F)(F)F", "note": "(centres unmarked) [Compound I-2, 2-(2,2,2-trifluoroethylsufinyl)-4-(4-oxo-quinazolin-3-yl)-5-fluoro-toluol]", "values": [
      {"measurement": "mortality", "setting": "[1]", "result": "at least 50%"},
      {"measurement": "mortality", "setting": "[2]", "result": "at least 50%"}
    ]},
    {"smiles": "Cc1cc(F)c(-n2c(C)nc3ccccc3c2=O)cc1SCC(F)(F)F", "note": "[Compound I-3, 2-(2,2,2-trifluoroethylsufanyl)-4-(2-methyl-4-oxo-quinazolin-3-yl)-5-fluoro-toluol]", "values": [
      {"measurement": "mortality", "setting": "[3]", "result": "at least 50%"}
    ]},
    {"smiles": "Cc1cc(F)c(-n2cnc3ccccc3c2=O)cc1SCC(F)(F)F", "note": "[Compound I-1, 2-(2,2,2-trifluoroethylsufanyl)-4-(4-oxo-quinazolin-3-yl)-5-fluoro-toluol]", "values": [
      {"measurement": "mortality", "setting": "[1]", "result": "at least 50%"},
      {"measurement": "mortality", "setting": "[2]", "result": "at least 50%"}
    ]}
  ]
}
